Test results: doi:10.1101/679431 (bioRxiv, 2019)
Numbering of substitutions follows the chain as printed. In names and notes the source's numbering stands. No constants are given. Whether binding was seen depends on the method and setting. Some binding calls cover weakened binding; strength is not graded here. Tags and fused reporters may be left off the sequences shown. One block for each binder: values may come before it.

Tests used:
[1] = target: WT TRAP1 with C-terminal HA tag (pcDNA3.1 (+) MTS-HA vector) (human) (UniProt Q12931); experiment: native gel or EMSA
[2] = target: TRAP1 double point mutant E115A/R402A with C-terminal HA tag (human) (UniProt Q12931); experiment: native gel or EMSA

- binding [1]: binds
B1: WT TRAP1 with C-terminal HA tag (pcDNA3.1 (+) MTS-HA vector) (protein, UniProt Q12931 60-704)
chain: STQTAEDKEEPLHSIISSTESVQGSTSKHEFQAETKKLLDIVARSLYSEKEVFIRELISNASDALEKLRHKLVSDGQALPEMEIHLQTNAEKGTITIQDTGIGMTQEELVSNLGTIARSGSKAFLDALQNQAEASSKIIGQFGVGFYSAFMVADRVEVYSRSAAPGSLGYQWLSDGSGVFEIAEASGVRTGTKIIIHLKSDCKEFSSEARVRDVVTKYSNFVSFPLYLNGRRMNTLQAIWMMDPKDVREWQHEEFYRYVAQAHDKPRYTLHYKTDAPLNIRSIFYVPDMKPSMFDVSRELGSSVALYSRKVLIQTKATDILPKWLRFIRGVVDSEDIPLNLSRELLQESALIRKLRDVLQQRLIKFFIDQSKKDAEKYAKFFEDYGLFMREGIVTATEQEVKEDIAKLLRYESSALPSGQLTSLSEYASRMRAGTRNIYYLCAPNRHLAEHSPYYEAMKKKDTEVLFCFEQFDELTLLHLREFDKKKLISVETDIVVDHYKEEKFEDRSPAAECLSEKETEELMAWMRNVLGSRVTNVKVTLRLDTHPAMVTVLEMGAARHFLRMQQLAKTQEERAQLLQPTLEINPRHALIKKLNQLRASEPGLAQLLVDQIYENAMIAAGLVDDPRAMVGRLNELLVKALERH

- binding [2]: binds
B2: TRAP1 double point mutant E115A/R402A with C-terminal HA tag (protein, UniProt Q12931 60-704)
chain: B1 chain with E56A, R343A
